Among the data in publication PMC12147174, “PEX1^G843D remains functional in peroxisome biogenesis but is rapidly degraded by the proteasome” (The Journal of Biological Chemistry, 2025) are binding values, retold here.

No constants are given. Whether binding was seen depends on the method and setting. Binding seen in cells or lysates may run through a third protein. A yes stands for co-enrichment or nearness to the bait. Other partners may have been found. Sequences can lack the tags named with a protein.

In this test the target is T1, FLAG-PEX1^WT (human PEX1, N-terminal FLAG knock-in) (human (endogenous in HCT116)) (UniProt O43933).
T1 sequence: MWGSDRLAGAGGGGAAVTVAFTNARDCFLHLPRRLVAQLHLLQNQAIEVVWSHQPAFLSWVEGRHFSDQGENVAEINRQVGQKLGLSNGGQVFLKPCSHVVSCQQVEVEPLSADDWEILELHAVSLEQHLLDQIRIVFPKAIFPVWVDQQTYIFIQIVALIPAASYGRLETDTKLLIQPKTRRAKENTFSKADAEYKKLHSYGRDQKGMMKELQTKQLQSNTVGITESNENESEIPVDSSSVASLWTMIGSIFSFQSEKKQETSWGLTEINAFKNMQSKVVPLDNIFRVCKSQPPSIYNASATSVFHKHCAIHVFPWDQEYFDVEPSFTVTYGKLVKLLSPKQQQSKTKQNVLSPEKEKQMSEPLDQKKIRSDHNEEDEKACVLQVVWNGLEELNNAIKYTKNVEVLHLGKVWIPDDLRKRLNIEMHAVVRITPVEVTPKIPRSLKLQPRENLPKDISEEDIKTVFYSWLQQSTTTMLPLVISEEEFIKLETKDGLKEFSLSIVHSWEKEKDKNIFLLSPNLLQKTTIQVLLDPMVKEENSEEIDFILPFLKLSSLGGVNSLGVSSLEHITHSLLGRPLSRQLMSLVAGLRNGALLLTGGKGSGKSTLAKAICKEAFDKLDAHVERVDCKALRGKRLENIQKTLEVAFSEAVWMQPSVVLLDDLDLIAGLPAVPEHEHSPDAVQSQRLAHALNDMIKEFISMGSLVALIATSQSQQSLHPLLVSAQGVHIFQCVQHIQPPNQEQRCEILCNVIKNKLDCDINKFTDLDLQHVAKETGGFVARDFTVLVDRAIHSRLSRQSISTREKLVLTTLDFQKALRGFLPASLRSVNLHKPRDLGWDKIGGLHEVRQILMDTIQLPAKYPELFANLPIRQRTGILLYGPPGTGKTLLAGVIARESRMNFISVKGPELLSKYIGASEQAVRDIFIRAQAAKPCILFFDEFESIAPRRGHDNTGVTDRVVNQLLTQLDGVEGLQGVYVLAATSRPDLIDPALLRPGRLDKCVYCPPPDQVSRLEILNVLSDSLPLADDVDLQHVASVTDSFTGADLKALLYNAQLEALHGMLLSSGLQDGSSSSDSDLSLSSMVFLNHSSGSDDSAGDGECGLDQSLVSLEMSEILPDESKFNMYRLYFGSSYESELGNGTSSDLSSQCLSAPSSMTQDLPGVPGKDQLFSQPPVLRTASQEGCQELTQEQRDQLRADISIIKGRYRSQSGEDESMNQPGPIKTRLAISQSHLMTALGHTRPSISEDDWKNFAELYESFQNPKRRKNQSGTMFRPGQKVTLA
In words: affinity purification with mass spectrometry; anti-FLAG M2 agarose eluates from HCT116 lysate (LB1 with ATPγS), TCA precipitated, trypsin, LC-MS/MS; total precursor intensity normalized to PEX1.

B1: SPATA5 (human) (enzyme, UniProt Q8NB90 1-893)
chain: MSSKKNRKRLNQSAENGSSLPSAASSCAEARAPSAGSDFAATSGTLTVTNLLEKVDDKIPKTFQNSLIHLGLNTMKSANICIGRPVLLTSLNGKQEVYTAWPMAGFPGGKVGLSEMAQKNVGVRPGDAIQVQPLVGAVLQAEEMDVALSDKDMEINEEELTGCILRKLDGKIVLPGNFLYCTFYGRPYKLQVLRVKGADGMILGGPQSDSDTDAQRMAFEQSSMETSSLELSLQLSQLDLEDTQIPTSRSTPYKPIDDRITNKASDVLLDVTQSPGDGSGLMLEEVTGLKCNFESAREGNEQLTEEERLLKFSIGAKCNTDTFYFISSTTRVNFTEIDKNSKEQDNQFKVTYDMIGGLSSQLKAIREIIELPLKQPELFKSYGIPAPRGVLLYGPPGTGKTMIARAVANEVGAYVSVINGPEIISKFYGETEAKLRQIFAEATLRHPSIIFIDELDALCPKREGAQNEVEKRVVASLLTLMDGIGSEVSEGQVLVLGATNRPHALDAALRRPGRFDKEIEIGVPNAQDRLDILQKLLRRVPHLLTEAELLQLANSAHGYVGADLKVLCNEAGLCALRRILKKQPNLPDVKVAGLVKITLKDFLQAMNDIRPSAMREIAIDVPNVSWSDIGGLESIKLKLEQAVEWPLKHPESFIRMGIQPPKGVLLYGPPGCSKTMIAKALANESGLNFLAIKGPELMNKYVGESERAVRETFRKARAVAPSIIFFDELDALAVERGSSLGAGNVADRVLAQLLTEMDGIEQLKDVTILAATNRPDRIDKALMRPGRIDRIIYVPLPDAATRREIFKLQFHSMPVSNEVDLDELILQTDAYSGAEIVAVCREAALLALEEDIQANLIMKRHFTQALSTVTPRIPESLRRFYEDYQEKSGLHTL
Regarding B1, the binding entry is given as “binds”.

B2: ATAD2 (human) (enzyme, UniProt Q6PL18 1-1390)
chain: MVVLRSSLELHNHSAASATGSLDLSSDFLSLEHIGRRRLRSAGAAQKKPAATTAKAGDGSSVKEVETYHRTRALRSLRKDAQNSSDSSFEKNVEITEQLANGRHFTRQLARQQADKKKEEHREDKVIPVTRSLRARNIVQSTEHLHEDNGDVEVRRSCRIRSRYSGVNQSMLFDKLITNTAEAVLQKMDDMKKMRRQRMRELEDLGVFNETEESNLNMYTRGKQKDIQRTDEETTDNQEGSVESSEEGEDQEHEDDGEDEDDEDDDDDDDDDDDDDDEDDEDEEDGEEENQKRYYLRQRKATVYYQAPLEKPRHQRKPNIFYSGPASPARPRYRLSSAGPRSPYCKRMNRRRHAIHSSDSTSSSSSEDEQHFERRRKRSRNRAINRCLPLNFRKDELKGIYKDRMKIGASLADVDPMQLDSSVRFDSVGGLSNHIAALKEMVVFPLLYPEVFEKFKIQPPRGCLFYGPPGTGKTLVARALANECSQGDKRVAFFMRKGADCLSKWVGESERQLRLLFDQAYQMRPSIIFFDEIDGLAPVRSSRQDQIHSSIVSTLLALMDGLDSRGEIVVIGATNRLDSIDPALRRPGRFDREFLFSLPDKEARKEILKIHTRDWNPKPLDTFLEELAENCVGYCGADIKSICAEAALCALRRRYPQIYTTSEKLQLDLSSINISAKDFEVAMQKMIPASQRAVTSPGQALSTVVKPLLQNTVDKILEALQRVFPHAEFRTNKTLDSDISCPLLESDLAYSDDDVPSVYENGLSQKSSHKAKDNFNFLHLNRNACYQPMSFRPRILIVGEPGFGQGSHLAPAVIHALEKFTVYTLDIPVLFGVSTTSPEETCAQVIREAKRTAPSIVYVPHIHVWWEIVGPTLKATFTTLLQNIPSFAPVLLLATSDKPHSALPEEVQELFIRDYGEIFNVQLPDKEERTKFFEDLILKQAAKPPISKKKAVLQALEVLPVAPPPEPRSLTAEEVKRLEEQEEDTFRELRIFLRNVTHRLAIDKRFRVFTKPVDPDEVPDYVTVIKQPMDLSSVISKIDLHKYLTVKDYLRDIDLICSNALEYNPDRDPGDRLIRHRACALRDTAYAIIKEELDEDFEQLCEEIQESRKKRGCSSSKYAPSYYHVMPKQNSTLVGDKRSDPEQNEKLKTPSTPVACSTPAQLKRKIRKKSNWYLGTIKKRRKISQAKDDSQNAIDHKIESDTEETQDTSVDHNETGNTGESSVEENEKQQNASESKLELRNNSNTCNIENELEDSRKTTACTELRDKIACNGDASSSQIIHISDENEGKEMCVLRMTRARRSQVEQQQLITVEKALAILSQPTPSLVVDHERLKNLLKTVVKKSQNYNIFQLENLYAVISQCIYRHRKDHDKTSLIQKMEQEVENFSCSR
Turning to B2, the binding entry is on record as “binds”.
